Measurements reported in US20230213527A1, “COMPOSITIONS AND METHODS FOR POLYPEPTIDE ANALYSIS” (Quantum-Si Incorporated, priority 2021, published 2023).
These are yes or no findings as the source states them, for the method shown. Some results given as binding are weak or reduced against the parent protein; the word gives no strength.

Key:
Test in all cases: bulk characterization by fluorescence polarization (FIG. 7C)
[1] = biological target: T1, labeled peptide with N-terminal isoleucine (X…-FITC, SEQ ID NO: 833, X = I)
T1 sequence (peptide, C-terminal FITC label): IAKLDEESILKQK

[2] = biological target: T2, labeled peptide with N-terminal leucine (X…-FITC, SEQ ID NO: 833, X = L)
T2 sequence (peptide, C-terminal FITC label): LAKLDEESILKQK

[3] = biological target: T3, labeled peptide with N-terminal valine (X…-FITC, SEQ ID NO: 833, X = V)
T3 sequence (peptide, C-terminal FITC label): VAKLDEESILKQK

Measured: binding

B1: PS961 (designed binder)
chain: MPTAASATESAIEDTPAPARPEVDGRTKPKRQPRYHVVLWDDDDHTYQYVVVMLRSLFGHPPSRGYRMAKEMDTQGRVIVLTTTREHAELKRDQIHAFGRDRLLARSKGSMKASIEAEE
binds: [1] | [2] | [3]
